# Results of single-concentration screens

T. brucei: 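Whole-parasite assay of Trypanosoma brucei over 72 hours; the read-out is not stated. Tested at 30 µM. Direction is inferred from retests: higher values go with stronger inhibition. Values scatter widely below zero; nearly all retest evidence comes from the higher of the two concentrations used. Of about 64,000 compounds tested this way, about 940 (1.5%) reached 50% or more in at least one test.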
Toxoplasma: 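Assay of Toxoplasma gondii numbers, read through their beta-galactosidase reporter with a colour substrate. Concentration: 10 µM. The record gives no direction; the compounds picked for IC50 retests had high values, so higher reads as fewer parasites. About 67,000 compounds were tested under these conditions; 0.38% (about 260) showed 50% or more at least once.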
Leishmania in macrophages: 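Cell assay of Leishmania donovani living inside macrophages; the read-out is not stated. Compounds at 30 µM. Higher reads as stronger inhibition (inferred: compounds with an IC50 in retests scored well above the rest). About 69,000 compounds were tested under these conditions; 1.5% (about 1,000) showed 50% or more at least once.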

Values are the deposited “Percent Effect”, in %. The record does not define 0% and 100%; most values in the screen are far below 50% and negative numbers occur (in some assays of this library far below -100). This is an unselected part of the compounds tested. Two or more numbers in one place are separate tests of the same structure; such repeats can differ widely. A dash means the value is not listed here; it may have been measured.

| Compound | T. brucei | Toxoplasma | Leishmania in macrophages |
|---|---|---|---|
| `CCN1CCN(C(=O)NCc2ccccc2Cn2cncn2)CC1` | -4.323 | -1.475 | 11.16 |
| `CN(CC(=O)NCc1cc2ccccc2o1)S(C)(=O)=O` | -2.184 | 9.8 | 33.3 |
| `CCOC(=O)NC(CNC(=O)c1cccc(C)n1)CC(C)C` (stereo unspecified) | -35.76 | 2.725 | -11.39 |
| `COc1ccc(Br)c(NC(=O)NCc2cnn(C)c2)c1` | 2.281 | 1.033 | 3.259 |
| `CCc1nc(NS(=O)(=O)c2cc(C)ccc2F)no1` | 10.65 | -2.643 | 17.52 |
| `C[C@@H]1CN(S(=O)(=O)N2CCOCC2)C[C@@]1(O)C1CC1` | -10.21 | 0.1856 | 1.511 |
| `COCC(=O)N1CCC(c2cc(C(F)(F)F)c3c(C)noc3n2)CC1` | -12.49 | 6.321 | -5.749 |
| `CN(CCCc1ccc(C(F)(F)F)cc1)Cc1nccn1C` | -8.764 | 16.53 | -12.47 |
| `COC(=O)c1ncccc1N1CCC(C(O)c2ccccc2)CC1` (stereo unspecified) | -13.73 | -1.735 | 26.75 |
| `CC(C)c1noc(CN2CCCN(Cc3cccs3)CC2)n1` | - | 3.874 | 41.79 |
| `O=C1NCC2(CCCN(C(=O)c3c[nH]nc3C3CCCCC3)C2)O1` (stereo unspecified) | -37.11 | 7.853 | 43.77 |
| `CC1CN(C2CCN(Cc3nccn3CC(F)(F)F)CC2)CCO1` (stereo unspecified) | 0.2285 | -5.298 | 12.57 |
| `Cc1noc(CCCC(=O)N2CSCC2C(=O)NCC2CC2)n1` (stereo unspecified) | -57.54 | 15.59 | 28.34 |
| `COc1ccc(OC)c(NC(=O)c2c(C)cn(C)c2CC(=O)O)c1` | -15.15 | 23.79 | -13.63 |
| `[H][C@@]12COC[C@H](C(=O)N3CCOCC3)[C@]1([H])CN(CC1CC1)C2` | -79.04 | 7.389 | -5.086 |
| `CC(C)c1nn(C)c(N(C)C)c1CNCc1ccccc1CN(C)C` | -6.313 | -20.75 | 50.34 |
| `Cc1ccc(C(=O)N2CCC(Oc3cccc(C)c3C)CC2)c(=O)[nH]1` | 1.04 | -32.85 | 34.58 |
| `Cc1sc2c(C3CCCN(C)C3)nc(C)n2c1C` (stereo unspecified) | -22.15 | 21.03 | 0.4695 and -3.108 |
| `Cc1nc(C(=O)N2CCCN(Cc3cnn(C)c3)CC2)ccc1C#N` | 1.514 | 9.546 | 5.091 |
| `O=C(O)C(F)(F)F.[H][C@@]12CN(C(=O)NC(C)C)C[C@]1([H])C(=O)N(Cc1csc(C)n1)C2` | -16.01 | 5.854 | -6.355 |
| `Cn1ccnc1SCCNC(=O)c1cc(S(N)(=O)=O)ccc1F` | 3.489 | -0.1873 | 23.54 |
| `CCN(CC)S(=O)(=O)c1ccc2c(c1)N(Cc1ccccn1)C(=O)CS2` | -4.122 | -1.133 | -5.851 |
| `CC(C)c1nsc(N2CCn3c(nnc3-c3ccccc3)C2)n1` | -27.61 | 2.626 | 15.88 |
| `CC(NC(=O)CN(C)C(C)C)c1ccc(Oc2cccnc2)c(F)c1` (stereo unspecified) | -3.524 | - | 51.39 |
| `Cc1ccc(CNC(=O)c2c[nH]nc2NC(=O)COCC2CC2)cc1` | -0.1278 | - | 29.76 |
| `O=C(NC1CC1)c1cc(NC(=O)N2CCSCC2)ccc1Cl` | -33.28 | 19.22 | -11.21 |
| `O=c1[nH]c(N2CCOCC2)nc2c1CN(Cc1cccnc1)CC2` | -10.89 | -23.35 | -22.54 |
| `COc1ccc(CCN2CCCC(n3cncn3)C2)cc1` (stereo unspecified) | -60.8 | -13.39 | 15.72 |
| `CC(C)CN1C(=O)C2(CCCC2)NC1c1cccnc1` (stereo unspecified) | -60.28 | -2.733 | 0.8356 |
| `COc1ccccc1[C@@H]1CN(Cc2ccc3nsnc3c2)C[C@H]1C(=O)O` | -16.76 | -6.38 | 22.87 |
| `CCCC(=O)NC1CCCN(Cc2cccs2)C1` (stereo unspecified) | -38.07 | -14.49 | -13.8 |
| `O=C(O)C(F)(F)F.O=C(O)C(F)(F)F.c1cncc(-c2nnn3c2COCC(CNCC2CCOCC2)C3)c1` (stereo unspecified) | 41.27 | -7.706 | 24.6 |
| `CC1(C)CNC(=O)c2nc(CCCN3CCCC3)[nH]c2C1` | -108.5 | 19.69 | 28.35 |
| `N#Cc1c(Cl)nsc1NCCCN1C(=O)COc2ccccc21` | -26.34 | 21.79 | -10.64 |
| `CCN1CCN(c2ccccc2NC(=O)N(C)C2CCSC2)CC1` (stereo unspecified) | -38.92 | -19.31 | 14.15 |
| `CN(CC1COc2ccccc2O1)C(=O)NCCCn1cccn1` (stereo unspecified) | 3.848 | 0.5751 | 16.05 |
| `O=C(c1ccc(C(F)(F)F)cc1)C1CCCN(C(=O)Cn2cnnn2)C1` (stereo unspecified) | -19.62 | -2.31 | 13.68 |
| `O=C(O)CC(O)(CC(=O)O)C(=O)O.[H][C@@]12CC[C@@](O)(c3ccc(C)cn3)[C@]1([H])CN(Cc1cccc(F)c1F)C2` | 30.77 | -4.995 | 1.904 and 3.326 |
| `CC(C)OCCCNC(=O)c1c(-n2cnnn2)sc2c1CCCC2` | -37.94 | -19.33 | -29.6 |
| `CN1CCN(c2ccc(NS(=O)(=O)c3ccc(Br)s3)cc2C(=O)O)CC1` | -10.86 | 29.1 | -2.397 |
| `CCc1cnc2c(c1NCc1ccncc1)c(=O)n(C)c(=O)n2C` | -69.42 | 1.314 | 9.952 |
| `CCOc1ccc(-c2ccc3c(c2)OCO3)cc1C(N)=O` | -48.34 | 3.686 | 16.51 |
| `CC(=O)N1CCCN(c2nccc(-c3cn(C)nc3C)n2)CC1` | 40.26 | -1.652 | 12.27 |
| `CC(C)n1ccnc1CN1CCCN(C(=O)CC2CCCO2)CC1` (stereo unspecified) | -1.579 | -10.17 | -4.234 |
| `O=C(c1ccc(-c2cn[nH]c2)nc1)N1CCC(N2CCOCC2)CC1` | -2.713 | 16.72 | 10.05 |
| `CC(Cn1ccnc1)NC(=O)Cc1ccc2c(c1)OCCO2` (stereo unspecified) | -9.88 | 22.86 | -47.52 |
| `c1cc(-c2nc3c(c(NCCn4ccnn4)n2)CCNCC3)ccn1` | -15.86 | -2.136 | 24.72 |
| `CNC(=O)c1cn[nH]c1C1(C)CCCN(Cc2ccccn2)C1` (stereo unspecified) | -0.4143 | -7.958 | 29.89 and 17.73 |
| `Cc1nc2c(c(NCc3nc4ccccc4s3)n1)CCNCC2` | 53.81 | 3.581 | 11.81 |
| `Cc1cccc(CN2C(=O)CCC23CCN(Cc2cccn2C)CC3)n1.O=C(O)C(F)(F)F.O=C(O)C(F)(F)F` | -13.68 | 6.864 | 36.77 |
| `O=C(c1nnn(-c2ccccc2F)c1-c1ccccn1)N1CCSCC1` | 16.96 | 8.237 | 78.49 and -8.251 |
| `Fc1cccc(-n2ccc(CN3CCCC3Cn3cncn3)n2)c1` (stereo unspecified) | 4.275 | 0.9648 | 28.15 |
| `c1cnc(N2CCc3onc(CN4CCCC4)c3C2)cn1` | -35.43 | 4.456 | 16.3 |
| `Cc1nc(CN2CCC3(CCCN(Cc4cccnc4)C3)C2=O)cs1.O=C(O)C(F)(F)F.O=C(O)C(F)(F)F.O=C(O)C(F)(F)F` (stereo unspecified) | -10.39 | 30.56 | 2.736 |
| `O=C(CN1CCN(c2ccnc3c(F)ccc(F)c23)CC1)N1CCCC1` | -3.766 | 0.767 | -21.01 |
| `O=C(NCc1cc[nH]n1)NCC(O)c1ccc(F)c(F)c1` (stereo unspecified) | -13.21 | 1.552 | 4.514 |
| `Cc1ncc(S(C)(=O)=O)c(N2CCCN(Cc3ccccn3)CC2)n1` | -23.46 | -7.399 | -1.16 |
| `Cc1nn(C)c(C)c1CN(C)CC1(O)CCCN(C)C1` (stereo unspecified) | -37.85 | -2.731 | -7.027 |
| `Cc1cccc(C)c1Nc1noc2c1CN(C(=O)c1c[nH]nc1C)CC2` | 17.31 | 12.27 | 16.49 |
| `CCc1nccn1C1CCCN(C(=O)c2csc(NC(C)=O)n2)C1` (stereo unspecified) | 7.905 | -0.5562 | 6.838 |
| `CCOC(=O)C1CCN(C(=O)Cc2c(C)nc(C)[nH]c2=O)CC1` | -28.61 | -4.371 | 4.971 |
| `Cc1cc(C(C)NC(=O)CCN2C(=O)c3ccccc3C2=O)c(C)o1` (stereo unspecified) | -22.14 | -14.63 | -22.49 |
| `O=C(NCc1cccnc1)N1CCc2ncnc(NC3CC3)c2CC1.O=C(O)C(F)(F)F` | -91.71 | -3.782 | 36.38 |

The values are deposited in ChEMBL (CHEMBL3988442, “University of Dundee, Small-Polar-MMV Screening Library” (2021)).